# Measurements reported in PMC2877795, “Laminin chain assembly is regulated by specific coiled-coil interactions” (Journal of Structural Biology, 2010).
# No constants are given. Whether binding was seen depends on the method and setting.
# T1: β2γ2 complex of the recombinant mouse laminin coiled-coil fragments (mouse) (UniProt Q61292+Q61092)
# T1 sequence 1: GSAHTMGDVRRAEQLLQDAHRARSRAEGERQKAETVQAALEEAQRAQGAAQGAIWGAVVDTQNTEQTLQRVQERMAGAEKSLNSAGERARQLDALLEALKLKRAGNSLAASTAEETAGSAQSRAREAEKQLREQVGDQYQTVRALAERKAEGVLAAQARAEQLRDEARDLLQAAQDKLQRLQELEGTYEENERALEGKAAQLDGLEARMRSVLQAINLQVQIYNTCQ
# T1 sequence 2: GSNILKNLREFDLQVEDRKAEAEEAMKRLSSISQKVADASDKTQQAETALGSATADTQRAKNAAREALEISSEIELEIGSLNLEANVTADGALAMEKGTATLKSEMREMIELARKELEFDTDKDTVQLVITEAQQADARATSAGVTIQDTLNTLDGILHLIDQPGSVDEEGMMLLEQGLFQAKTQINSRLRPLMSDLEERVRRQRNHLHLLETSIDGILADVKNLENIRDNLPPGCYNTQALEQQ
# T2: β1γ3 complex of the recombinant mouse laminin coiled-coil fragments (mouse) (UniProt P02469+Q9R0B6)
# T2 sequence 1: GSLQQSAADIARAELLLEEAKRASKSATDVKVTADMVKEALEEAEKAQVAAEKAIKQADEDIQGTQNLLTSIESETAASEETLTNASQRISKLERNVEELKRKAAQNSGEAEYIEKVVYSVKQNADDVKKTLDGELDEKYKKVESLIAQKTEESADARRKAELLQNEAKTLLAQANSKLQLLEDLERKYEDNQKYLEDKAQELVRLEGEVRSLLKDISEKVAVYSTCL
# T2 sequence 2: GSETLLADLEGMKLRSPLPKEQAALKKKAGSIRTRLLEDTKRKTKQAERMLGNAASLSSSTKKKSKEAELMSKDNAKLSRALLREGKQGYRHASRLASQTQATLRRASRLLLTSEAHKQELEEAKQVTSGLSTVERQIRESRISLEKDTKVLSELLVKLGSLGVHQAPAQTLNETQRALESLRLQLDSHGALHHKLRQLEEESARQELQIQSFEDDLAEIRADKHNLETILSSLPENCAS
# T3: β3 + γ1 mixture of the recombinant mouse laminin coiled-coil fragments (mouse) (UniProt Q61087+P02468)
# T3 sequence 1: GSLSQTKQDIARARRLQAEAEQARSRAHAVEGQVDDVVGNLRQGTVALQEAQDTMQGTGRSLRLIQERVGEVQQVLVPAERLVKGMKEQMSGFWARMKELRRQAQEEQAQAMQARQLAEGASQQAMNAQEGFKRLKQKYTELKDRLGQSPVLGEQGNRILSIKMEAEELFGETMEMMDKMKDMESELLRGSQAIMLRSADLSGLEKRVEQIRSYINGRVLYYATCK
# T3 sequence 2: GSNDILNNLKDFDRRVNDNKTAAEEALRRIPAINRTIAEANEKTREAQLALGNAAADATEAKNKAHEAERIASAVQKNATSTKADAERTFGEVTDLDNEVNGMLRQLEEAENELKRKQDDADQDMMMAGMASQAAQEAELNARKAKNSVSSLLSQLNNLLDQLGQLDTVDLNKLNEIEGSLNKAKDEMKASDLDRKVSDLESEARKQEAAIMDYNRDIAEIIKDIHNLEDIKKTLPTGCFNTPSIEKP
# T4: β2γ3 complex of the recombinant mouse laminin coiled-coil fragments (mouse) (UniProt Q61292+Q9R0B6)
# T4 sequence 1: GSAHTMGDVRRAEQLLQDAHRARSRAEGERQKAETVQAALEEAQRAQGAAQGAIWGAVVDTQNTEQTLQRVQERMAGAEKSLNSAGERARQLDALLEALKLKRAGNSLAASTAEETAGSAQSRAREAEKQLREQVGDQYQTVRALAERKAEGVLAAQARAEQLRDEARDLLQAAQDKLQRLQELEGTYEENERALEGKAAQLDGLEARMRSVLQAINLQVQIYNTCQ
# T4 sequence 2: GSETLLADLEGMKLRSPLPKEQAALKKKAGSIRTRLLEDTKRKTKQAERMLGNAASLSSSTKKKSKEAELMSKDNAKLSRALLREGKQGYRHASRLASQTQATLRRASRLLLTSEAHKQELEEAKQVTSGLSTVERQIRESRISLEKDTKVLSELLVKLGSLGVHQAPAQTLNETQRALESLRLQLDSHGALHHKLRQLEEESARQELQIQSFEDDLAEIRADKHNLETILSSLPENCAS
# T5: β3 + γ3 mixture of the recombinant mouse laminin coiled-coil fragments (mouse) (UniProt Q61087+Q9R0B6)
# T5 sequence 1: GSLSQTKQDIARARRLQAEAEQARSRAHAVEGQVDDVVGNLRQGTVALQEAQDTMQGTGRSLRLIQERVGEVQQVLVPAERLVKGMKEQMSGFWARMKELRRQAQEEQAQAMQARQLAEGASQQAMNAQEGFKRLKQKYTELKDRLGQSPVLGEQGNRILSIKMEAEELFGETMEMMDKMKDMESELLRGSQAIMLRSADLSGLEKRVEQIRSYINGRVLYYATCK
# T5 sequence 2: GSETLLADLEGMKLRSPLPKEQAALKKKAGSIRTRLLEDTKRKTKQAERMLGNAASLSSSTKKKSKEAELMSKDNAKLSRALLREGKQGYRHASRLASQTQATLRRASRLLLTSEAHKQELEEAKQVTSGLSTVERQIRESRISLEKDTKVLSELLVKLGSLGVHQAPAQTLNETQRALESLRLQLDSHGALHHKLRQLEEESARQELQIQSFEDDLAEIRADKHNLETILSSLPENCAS
# T6: recombinant mouse laminin β3 chain C-terminal coiled-coil fragment (945–1168) (mouse) (UniProt Q61087)
# T6 sequence: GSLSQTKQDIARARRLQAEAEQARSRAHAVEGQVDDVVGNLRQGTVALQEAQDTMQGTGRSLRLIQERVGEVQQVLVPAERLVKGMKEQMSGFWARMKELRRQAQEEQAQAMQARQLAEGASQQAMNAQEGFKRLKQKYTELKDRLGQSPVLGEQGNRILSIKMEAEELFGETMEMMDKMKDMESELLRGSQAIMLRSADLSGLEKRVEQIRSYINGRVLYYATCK
# T7: β3γ2 complex of the recombinant mouse laminin coiled-coil fragments (mouse) (UniProt Q61087+Q61092)
# T7 sequence 1: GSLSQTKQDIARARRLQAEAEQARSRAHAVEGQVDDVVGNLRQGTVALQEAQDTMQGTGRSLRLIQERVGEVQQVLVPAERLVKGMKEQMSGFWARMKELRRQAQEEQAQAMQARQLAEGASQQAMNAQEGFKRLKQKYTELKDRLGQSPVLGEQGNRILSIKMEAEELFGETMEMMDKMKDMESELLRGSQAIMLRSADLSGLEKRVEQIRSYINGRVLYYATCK
# T7 sequence 2: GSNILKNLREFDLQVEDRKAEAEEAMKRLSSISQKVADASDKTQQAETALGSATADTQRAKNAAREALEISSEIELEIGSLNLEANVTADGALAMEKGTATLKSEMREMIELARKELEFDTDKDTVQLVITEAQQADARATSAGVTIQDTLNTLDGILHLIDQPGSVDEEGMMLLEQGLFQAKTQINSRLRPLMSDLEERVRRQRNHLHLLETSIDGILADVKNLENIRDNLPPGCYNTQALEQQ
# How the values were obtained:
# [1] = target: T1, β2γ2 complex of the recombinant mouse laminin coiled-coil fragments (mouse); assay: native gel or EMSA; mixtures of one α, one β and one γ chain fragment; 10% non-denaturing PAGE (acid gels for basic complexes); mixtures reduced, heated to 70 °C for 5 min and cooled; run overnight at 50 V, room temperature, no cooling; Coomassie; bands confirmed by in-gel trypsin digestion and mass spectrometry; both purified
# [2] = target: T2, β1γ3 complex of the recombinant mouse laminin coiled-coil fragments (mouse); assay: as above
# [3] = target: T3, β3 + γ1 mixture of the recombinant mouse laminin coiled-coil fragments (mouse); assay: as above
# [4] = target: T4, β2γ3 complex of the recombinant mouse laminin coiled-coil fragments (mouse); assay: as above
# [5] = target: T5, β3 + γ3 mixture of the recombinant mouse laminin coiled-coil fragments (mouse); assay: as above
# [6] = target: T6, recombinant mouse laminin β3 chain C-terminal coiled-coil fragment (945–1168) (mouse); assay: native gel or EMSA; mixtures of one β and one γ chain fragment; 10% non-denaturing PAGE (acid gels for basic complexes); mixtures reduced, heated to 70 °C for 5 min and cooled; run overnight at 50 V; Coomassie; bands confirmed by in-gel trypsin digestion and mass spectrometry; both purified
# [7] = target: T7, β3γ2 complex of the recombinant mouse laminin coiled-coil fragments (mouse); assay: native gel or EMSA; mixtures of one α, one β and one γ chain fragment; 10% non-denaturing PAGE (acid gels for basic complexes); mixtures reduced, heated to 70 °C for 5 min and cooled; run overnight at 50 V, room temperature, no cooling; Coomassie; bands confirmed by in-gel trypsin digestion and mass spectrometry; both purified
binding [1],binding [2],binding [3],binding [4],binding [5],binding [6],binding [7],Binder
no binding,no binding,no binding,no binding,no binding,–,–,"recombinant mouse laminin α3 chain C-terminal coiled-coil fragment (2176–2397) (domain or fragment, two residues (GlySer) left from the protease recognition site after thrombin cleavage; laminin α3 chain, mouse, C-terminal coiled-coil fragment, residues 2176-2397 of the native chain (222 residues); the printed numbers fit the long (α3B) form; source: E. coli JM109(DE3), purified (Ni2+-Sepharose, denaturing, 8 M urea), 6xHis tag removed by thrombin; not shown: 6xHis, N-terminal, cleaved; pPEP-T …) GSYENILNAIRAAEDAASKATSASKSAFQTVIKEDLPKRAKTLSSDSEELLNEAKMTQKRLQQVSPALNSLQQTLKTVSVQKDLLDANLTVARDDLHGIQRGDIDSVVIGAKSMVREANGITSEVLDGLNPIQTDLGRIKDSYESARREDFSKALVDANNSVKKLTRKLPDLFIKIESINQQLLPLGNISDNVDRIRELIQQARDAANKVAIPMRFNGKSGVEV"
–,–,–,–,–,no binding,–,"recombinant mouse laminin γ1 chain C-terminal coiled-coil fragment (1362–1607) (domain or fragment, two residues (GlySer) left from the protease recognition site after thrombin cleavage; laminin γ1 chain, mouse, C-terminal coiled-coil fragment, residues 1362-1607 of the native chain (246 residues); source: E. coli JM109(DE3), purified (Ni2+-Sepharose, denaturing, 8 M urea), 6xHis tag removed by thrombin; not shown: 6xHis, N-terminal, cleaved; pPEP-T leader (short C-terminal fragment of the …)) GSNDILNNLKDFDRRVNDNKTAAEEALRRIPAINRTIAEANEKTREAQLALGNAAADATEAKNKAHEAERIASAVQKNATSTKADAERTFGEVTDLDNEVNGMLRQLEEAENELKRKQDDADQDMMMAGMASQAAQEAELNARKAKNSVSSLLSQLNNLLDQLGQLDTVDLNKLNEIEGSLNKAKDEMKASDLDRKVSDLESEARKQEAAIMDYNRDIAEIIKDIHNLEDIKKTLPTGCFNTPSIEKP"
no binding,–,–,no binding,no binding,–,no binding,"recombinant mouse laminin α1 chain C-terminal coiled-coil fragment (1911–2125) (domain or fragment, two residues (GlySer) left from the protease recognition site after thrombin cleavage; laminin α1 chain, mouse, C-terminal coiled-coil fragment, residues 1911-2125 of the native chain (215 residues); source: E. coli JM109(DE3), purified (Ni2+-Sepharose, denaturing, 8 M urea), 6xHis tag removed by thrombin; not shown: 6xHis, N-terminal, cleaved; pPEP-T leader (short C-terminal fragment of the …)) GSHVHSNIQTLTEEAEMLAADAHKTANKTDLISESLASRGKAVLQRSSRFLKESVSTRRKQQGITMKLDELKNLTSQFQESMDNIMKQANDSLAMLRESPGGMREKGRKARELAAAANESAVKTLEDVLALSLRVFNTSEDLSRVNATVQETNDLLHNSTMTTLLAGRKMKDMEMQANLLLDRLKPLKTLEENLSRNLSEIKLLISRARKQVASIKV"
